Results published in publication PMC8319359.
Construct, isoform or probe ends are uncertain for at least one entry. For some of these results: Weaker means in comparison with the reference protein, sequence or condition of that experiment. For some of these results: At least one verdict was read from the data and is not stated in words by the source.

Tests used:
Assay in all cases: EMSA
[1] = tested on: Alx1-FL (Lytechinus variegatus); conditions: 75 mM NaCl, 15 mM Tris pH 7.6, 7.5% glycerol, 2 mM MgCl2, 1.5 mM EDTA, 0.1% NP-40, 40 mM DTT, 50 ug BSA, ice then RT, recombinant protein, protein details: Flag (N-terminal, intein removed)
[2] = tested on: Alx1-ΔD2 (Lytechinus variegatus); conditions: 75 mM NaCl, 15 mM Tris pH 7.6, 7.5% glycerol, 2 mM MgCl2, 1.5 mM EDTA, 0.1% NP-40, 40 mM DTT, 50 ug BSA, ice then RT, recombinant protein, protein details: His
[3] = tested on: Alx1-HD (Lytechinus variegatus); conditions: 75 mM NaCl, 15 mM Tris pH 7.6, 7.5% glycerol, 2 mM MgCl2, 1.5 mM EDTA, 0.1% NP-40, 40 mM DTT, 50 ug BSA, 1 ug poly(dI-dC) per 20 ul, ice then RT, recombinant protein, protein details: His
[4] = tested on: Alx4-FL (Lytechinus variegatus); conditions: 75 mM NaCl, 15 mM Tris pH 7.6, 7.5% glycerol, 2 mM MgCl2, 1.5 mM EDTA, 0.1% NP-40, 40 mM DTT, 50 ug BSA, 1 ug poly(dI-dC) per 20 ul, ice then RT, recombinant protein, protein details: Flag (N-terminal, intein removed)
[5] = dimer, 1 ug poly(dI-dC) per 20 ul, label: 5' biotin
[6] = primarily monomer, 1 ug poly(dI-dC) per 20 ul, label: 5' biotin
[7] = predominantly dimer, 1 ug poly(dI-dC) per 20 ul, label: 5' biotin
[8] = monomer and prominent dimer, 1 ug poly(dI-dC) per …, label: 5' biotin
[9] = monomer, some dimer, 1 ug poly(dI-dC) per 20 ul, label: 5' biotin

“ACCAACCACAACGTCGGGGCGTTAATAGATTTAAACTTTTTCGTCCGCCTG (double strand) [shorter palindromic (55bp)]”: binds [1, 5].
“ATATCCGCGCGCATAATGTGACGACGTTAC (double strand) [Site C]”: binds [2, 6]; binds more weakly ([3]; very weak, if at all, label: 5' biotin); binds [1, 6].
“ATCCAGGTATGTATCGTGTTAATCAGCCTGTCTCTTCATCATCCCGTTAATAAGGACTTGATCGCAAATG (double strand) [Site A + Site B (70bp)]”: binds ([4]; label: 5' biotin or Cy5); binds ([2]; 1 ug poly(dI-dC) per 20 ul, label: 5' biotin or Cy5); binds ([1]; dimeric complex, noncooperative, 1 ug poly(dI-dC) per 20 ul, label: 5' biotin or Cy5).
“CAAGCTGGTTTTGATTCGATCACGACTCTCT (double strand) [Site D]”: binds [2, 7]; binds ([3]; monomer and dimer, label: 5' biotin); binds [1, 7].
“CTTCATCATCCCGTTAATAAGGACTTGATCG (double strand) [Site B]”: binds [2, 8]; binds ([3]; monomer only, label: 5' biotin); binds [1, 8].
“GGTATGTATCGTGTTAATCAGCCTGTCTCTT (double strand) [Site A]”: binds [2, 9]; binds ([3]; monomer only, label: 5' biotin); binds [1, 9].
“GTCGGGGCGTTAATAGATTTAAACTTTTTC (double strand) [Sp-EMI/TM palindromic]”: binds ([4]; dimer:monomer ratio markedly lower than Alx1-FL, titration 9-296 nM, 1 nM Cy5 probe, label: 5' biotin (Fig 2) or Cy5 (Fig 3, 4C)); binds ([2]; dimer:monomer ratio lower than Alx1-FL, titration 12-388 nM, 1 ug poly(dI-dC) per 20 ul, label: 5' biotin (Fig 2) or Cy5 (Fig 3, 4C)); binds ([3]; monomer and dimer, label: 5' biotin (Fig 2) or Cy5 (Fig 3, 4C)). “GTCGGGGCGTTAATAGATTTAAACTTTTTC (double strand) [Sp-EMI/TM palindromic]”: binds ([1]; predominantly dimer, titration 12-388 nM, 1 nM Cy5 probe in Fig 3, 1 ug poly(dI-dC) per 20 ul, label: 5' biotin (Fig 2) or Cy5 (Fig 3, 4C)).
“GTTGATAAACCAACCACAACGTCGGGGCGTTAATAGATTTAAACTTTTTCGTCCGCCTGTAAAGTGATAA (double strand) [longer palindromic (70bp)]”: binds ([4]; dimer, label: 5' biotin); binds [2, 5]; binds [1, 5].
“TATGTATCGTGTTAATCAGCCTGTCTCTTCATCATCCCGCTCTTCATCATCCCGTTAATAAGGACTTGAT (double strand) [Site A +++ Site B (70bp)]”: binds ([1]; binding little or not changed versus Site A + Site B, 1 ug poly(dI-dC) per 20 ul, label: 5' biotin or Cy5).
“TATGTATCGTGTTAATCAGCCTGTCTCTTCATCATCCCGTTAATAAGGACT (double strand) [shorter Site A + Site B (55bp)]”: binds ([1]; complexes slower than dimer on palindrome, 1 ug poly(dI-dC) per 20 ul, label: 5' biotin).
